At least one structure is not confirmed: it was looked up by name or label, or the drawing left a doubt.
Tested on: PDGFRA Δ8, 9
Assay: p-PDGFR α inhibition in TS543 neurosphere cells (western blot)
Assay type: cell-based
Settings: drugs for 4 hours, then PDGF-BB 20 ng/ml for 10 minutes

For `Cc1nc(Nc2ncc(C(=O)Nc3c(C)cccc3Cl)s2)cc(N2CCN(CCO)CC2)n1` [Dasatinib, dasatinib], the “PDGFR (p-PDGFR α) inhibition” value was “p-PDGFR α inhibition”.

Reference: patent US20210220494A1, “COMPOSITIONS AND METHODS FOR TARGETED PARTICLE PENETRATION, DISTRIBUTION, AND RESPONSE IN MALIGNANT BRAIN TUMORS” (Memorial Sloan Kettering Cancer Center, priority 2016, published 2021)
